PubChem BioAssay AID1671195 – Yale University – 2021
Aim: 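Genes whose knockdown alters LDL uptake in liver cancer cells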 (primary screen). System: human Huh7 hepatoma cells. Knock-down reagent: siRNA pool against human genes, 18 nM. Time to read-out: about 2 to 2.5 days of knockdown, then 8 h LDL uptake. Challenge: DiI-labelled LDL at 30 µg/ml for 8 h, in lipoprotein-deficient serum medium. Measurement: 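Per-cell DiI-LDL intensity by automated imaging; well means scaled to the plate median and given as a robust z-score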. Direction: robust z-score: higher = more LDL uptake after knockdown. Rule for the call: 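Active when two or more replicates show a robust z-score above 2 or below -2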.
This is one part, drawn at random, of about 22,000 deposited reagents. Of all reagents, about 1,510 (6.9%) are marked active. 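Active includes knockdowns raising or lowering LDL uptake; positive z-scores mean more uptake, negative mean less.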 Unmarked entries are inactive. Reagent sequences are not shown.

The first 3 records, to show the layout:
gene symbol | robust z-score, replicate 1 | robust z-score, replicate 2 | robust z-score, replicate 3
RBP3 | 1.96 | 0.887 | 1.75
GALNT11 | 0.706 | 1.14 | 0.5
MIATNB | -0.218 | 0.136 | -0.224

Results, from the first entry:
gene symbol | robust z-score, replicate 1 | robust z-score, replicate 2 | robust z-score, replicate 3
RBP3 | 1.96 | 0.887 | 1.75
GALNT11 | 0.706 | 1.14 | 0.5
MIATNB | -0.218 | 0.136 | -0.224
IL17RB | -6.11 | -6.6 | -0.29
MED19 | -0.998 | -1.38 | -1.08
DMAC2L | -1.93 | -1.02 | -0.2
ST6GALNAC4 | -0.367 | -0.675 | -0.106
IGBP1 | -0.261 | -0.0441 | -0.107
NKRF | -1.57 | -0.691 | -2
TRAM2-AS1 | -1.97 | -1.71 | -1.84
PDE4A | -1.22 | -1.6 | -1.33
PROS1 | 0.144 | 0.0158 | 0.756
LLPH | 0.29 | 0.113 | 0.376
TNS2 | -1.51 | -1.22 | -0.26
RPN1 | -1.16 | -1.46 | -0.636
TRPM2 | 0.937 | -0.0856 | 0.428
CSNK1A1 | 1.48 (active) | 1.96 | 2.25
RAPSN | -0.65 | -1.14 | -1.03
DEPDC1B | -1.28 | -1.7 | 1.75
PTPN6 | -0.162 | -0.0276 | -0.247
FLJ37201 | -0.114 | 0.0484 | -0.198
LOC399986 (retired record) | -0.725 | -0.836 | -1.19
DIO1 | 2.29 | 0.343 | 0.489
LOC389642 (retired record) | 0.845 | 1.07 | 0.951
TRIM43 | 1.01 | -0.592 | 0.5
ORC4 | 2.15 | 0.765 | 0.608
LOC388952 (retired record) | -0.549 | -0.76 | -0.698
SIGLEC6 | 1.14 | 1.2 | 2.97
EIF5A2 | 0.54 | -0.121 | 0.138
SHBG | -0.595 | 0.295 | 0.519
CST9L | 3.41 (active) | 3.46 | 3.14
LOC202546 (retired record) | -0.316 | -0.682 | -0.828
CCNA2 | -0.478 | 0.668 | -0.674
MRPL16 | -0.305 | 0.795 | -0.994
LOC400301 (retired record) | 0.287 | 2.09 | 1.76
MYO6 | 0.394 | 0.686 | 0.624
LOC390367 (retired record) | -0.0418 | -0.581 | -0.472
RAD18 | -1.23 | 0.0596 | 0.407
PLEKHA2 | -0.758 | -0.107 | -0.506
JTB | -0.557 | 0.215 | -1.48
PSKH1 | 0.87 | 0.352 | 0.654
ZNF253 | -1.17 | -1.21 | -1.18
LOC439976 (retired record) | -0.746 | -0.275 | -0.224
SP140L | -0.892 | -0.617 | -0.889
LINC01020 | 0.152 | 0.115 | 0.218
IL13RA2 | 0.393 | -0.196 | 0.17
GATD1 | -1.44 | -1.35 | -1.52
SAMD15 | -0.893 | -1.15 | -0.508
LAMC3 | -1.84 | -1.94 | -1.45
SLC1A5 | -0.726 | -0.364 | -0.346
GCN1 | 0.0313 | 0.767 | 0.802
LOC388735 (retired record) | -0.844 | -0.656 | -0.961
LMNTD2 | -1.11 | -1.08 | -1.29
NOL11P1 | -0.257 | 0.328 | 0.149
TSGA10 | 0.838 | -0.0226 | 0.138
MAP3K10 | 0.0941 | 1.38 | 0.00292
ATOSA | -1.41 | -2.09 | -0.416
AP1S1 | -0.539 | -0.512 | -0.445
IDNK | 0.81 | 1.1 | 1.18
MAN2B2 | 1.63 | 1.58 | 1.01
IRX4 | -1.35 | -1.52 | -1.72
TMOD4 | -1.72 | -2.64 | -1.89
SRD5A1 | 1.17 | 1.45 | 1.12
CD28 | 0.0494 | -0.626 | 0.0304
EIF3F | 0.635 | 2.98 | 0.595
AIDA | 0.519 | 0.423 | -0.0344
SLC9B1P2 | 0.842 | 0.998 | 0.8
EBPL | 1.31 | 0.909 | 0.102
